Source: PubChem BioAssay AID445 (National Center for Advancing Translational Sciences (NCATS), 2006)
The list shows a part of the results. Shown are side measurements of this screen, not its main read-out; they come without a call. The list favours compounds with an active or inconclusive main result. Potencies come from curve fits of mixed quality, noted in brackets.

Assay: IkB Signaling
Conditions: ABC-DLBCL IkBa-CBG/CBR dual luciferase ratio (green luciferase fused to IkBa over red control in OCI-Ly3 lymphoma cells), 4 h
Procedure, shortened: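 Curves were fitted separately to fusion (green), unfused (red) and ratio luminescence, then classed by r2, magnitude and activity. Cells: OCI-Ly3, 4 h compound plus doxycycline at 37C; 10 uM MG-132 defined full response.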

[1] = measured here: control luc red channel unless noted

Question: Which AC50 [1] does the source give for `Cc1ccc(-c2nc3nc(C)cc(Nc4ccccc4O)n3n2)cc1` here?
Answer: The AC50 was 12.6 µM [falling, partial curve].

Question: Which AC50 [1] does the source give for `NC(=O)c1cc(-c2ccccc2)sc1NC(=O)Cc1ccc(S(=O)(=O)N2CCOCC2)s1` here?
Answer: Its AC50 is 2 µM [falling, full curve].

Question: With `CCOc1ccc(CCNC(=O)CCCn2c(=O)c3cccn3c3ccccc32)cc1` as the compound, how does the AC50 [1] read?
Answer: Its AC50 is 12.6 µM [falling, partial curve].

Question: For `Cc1ccc(Cl)cc1NC(=O)C(C)n1nc(-c2ccccc2)ccc1=O` (stereo unspecified), which AC50 [1] is on record?
Answer: Its AC50 is 31.6 µM [falling, single point].

Question: With `O=C(NCc1ccco1)c1sc(=S)n2c1[nH]c(=O)c1ccccc12` as the compound, how does the AC50 [1] read?
Answer: The AC50 was 10 µM [falling, partial curve].

Question: Which AC50 [1] does the source give for `Cc1cc(NC(=O)COC(=O)C(Nc2ccc(C(F)(F)F)cc2Cl)C(C)C)no1` (stereo unspecified) here?
Answer: The AC50 was 12.6 µM [falling, partial curve].

Question: For `COc1ccc(C2=CC(c3ccccc3Cl)n3nc(-c4ccc(Cl)cc4)nc3N2)cc1` (stereo unspecified), which AC50 [1] is on record?
Answer: The AC50 was 6.31 µM [falling, partial curve].

Question: With `Cc1ccc(Cl)cc1N1CCN(C(=O)Cn2cnc3sc(C)c(S(=O)(=O)N4CCC(C)CC4)c3c2=O)CC1` as the compound, how does the AC50 [1] read?
Answer: Its AC50 is 10 µM [falling, partial curve].

Question: For `Cc1ccc2c(c1)c1c(n2CC(O)Cn2c(C)nc3ccccc32)/C(=N\O)CCC1` (stereo unspecified), which AC50 [1] is on record?
Answer: The AC50 was 12.6 µM [falling, partial curve].

Question: For `Cc1nc2nc(NCc3ccc(Cl)cc3)[nH]n2c(=O)c1Cc1ccccc1`, which AC50 [1] is on record?
Answer: Its AC50 is 31.6 µM [falling, partial curve].

Question: For `CCCn1c(CCC(=O)Nc2ccc(OCC)cc2)nc2cccnc21`, which AC50 [1] is on record?
Answer: The AC50 was 25.1 µM [falling, single point].

Question: With `CC(=O)Nc1ccc(-c2nc3c(C)cccc3[nH]2)cc1` as the compound, how does the AC50 [1] read?
Answer: Its AC50 is 15.8 µM [falling, partial curve].

Question: With `COc1ccccc1N1CCN(CCCNC(=O)c2cnn(-c3cccc(Cl)c3)c2C2CCN(C(=O)OC(C)(C)C)CC2)CC1` as the compound, how does the AC50 [1] read?
Answer: The AC50 was 31.6 µM [falling, partial curve].

Question: Which AC50 [1] does the source give for `Cc1ccc(CN2C(=O)C3(c4ccccc42)N(c2cccc(F)c2)C(=O)CS3(=O)=O)cc1` (stereo unspecified) here?
Answer: The AC50 was 25.1 µM [falling, single point].

Question: For `CCOc1ccc(CNC(=O)Cn2cc3c(n2)-c2c(oc(C(=O)N4CCOCC4)c2C)CC3)cc1`, which AC50 [1] is on record?
Answer: The AC50 was 31.6 µM [falling, single point].

Question: With `CCc1cccc(-n2nnc(-c3nsc(NC(=O)c4cccs4)n3)c2C)c1` as the compound, how does the AC50 [1] read?
Answer: The AC50 was 15.8 µM [rising, partial curve, poor fit].

Question: Which AC50 [1] does the source give for `CC(=O)Nc1ccc2nc(-c3cc(C)ccc3C)[nH]c2c1` here?
Answer: The AC50 was 25.1 µM [rising, partial curve] [measured here: IkB-luc green channel].

Question: For `Cc1ccc(OCc2ccc(-c3nc(C#N)c(NCc4cccnc4)o3)o2)cc1`, which AC50 [1] is on record?
Answer: Its AC50 is 25.1 µM [falling, single point].

Question: With `COc1ccccc1N1CCN(S(=O)(=O)c2c(C)sc3ncn(CC(=O)N(C)c4ccc(Cl)cc4)c(=O)c23)CC1` as the compound, how does the AC50 [1] read?
Answer: The AC50 was 10 µM [falling, partial curve].

Question: For `Cc1ccc2[nH]c(=O)c(CN(Cc3ccccc3)Cc3nnnn3C3CCCC3)cc2c1`, which AC50 [1] is on record?
Answer: The AC50 was 1.26 µM [falling, full curve].

Question: For `Cc1c(C(=O)N2CCC(c3nc4ccccc4s3)CC2)oc2ccc(Cl)cc12`, which AC50 [1] is on record?
Answer: Its AC50 is 25.1 µM [falling, partial curve].

Question: For `Cc1ccc2c(CC(=O)Nc3ccc(S(=O)(=O)N4CCCCC4)cc3)coc2c1`, which AC50 [1] is on record?
Answer: Its AC50 is 7.94 µM [falling, partial curve].

Question: For `Cc1ccc(Cl)cc1NC(=O)Cn1c(=O)oc2cc(S(=O)(=O)N3CCCC3)ccc21`, which AC50 [1] is on record?
Answer: The AC50 was 1.26 µM [falling, full curve].

Question: Which AC50 [1] does the source give for `Cc1ccc(-n2ncc3c(Nc4cccc(C)c4C)ncnc32)cc1` here?
Answer: The AC50 was 39.8 µM [falling, partial curve].

Question: Which AC50 [1] does the source give for `Cc1ccc(NC(=O)c2cc(-c3ccc(Br)s3)nc3ccccc23)cc1F` here?
Answer: Its AC50 is 3.16 µM [rising, partial curve, poor fit].

Question: With `Cc1cc(C)c2c(=O)nc(SCc3ccccc3C)n(C3CC3)c2n1` as the compound, how does the AC50 [1] read?
Answer: The AC50 was 12.6 µM [falling, partial curve].

Question: For `COCCn1c(=NC(=O)c2ccc3c(c2)OCCO3)sc2cc(C(=O)OC)ccc21`, which AC50 [1] is on record?
Answer: The AC50 was 3.98 µM [falling, full curve].

Question: Which AC50 (measured here: IkB-luc green channel) does the source give for `COc1ccc(C(=O)OC2=C(C(=O)c3ccccc3)N(C)S(=O)(=O)c3ccccc32)cc1OC` here?
Answer: Its AC50 is 3.16 µM [rising, full curve, poor fit].

Question: And the AC50 (measured here: control luc red channel)?
Answer: Its AC50 is 3.16 µM [rising, partial curve].

Question: With `Cc1cc(C)nc(-n2nc(C)c3c2NC(=O)CC3c2cccc(O)c2)n1` (stereo unspecified) as the compound, how does the AC50 [1] read?
Answer: The AC50 was 0.0501 µM [falling, full curve].

Question: Which AC50 [1] does the source give for `COC(=O)CSC1=NS(=O)(=O)c2ccccc21` here?
Answer: The AC50 was 7.94 µM [rising, partial curve] [measured here: IkB-luc green channel].
